# Measured values as given in the supplement of paper PMC6445147.
# This is a noisy data set.
# B1: human tRNA-Pro; a variant is named by its letters at N, in order (parent)
# chain: GGCTCGTTGGTCTAGNGGTATGATTCTCGCTTAGGGTGCGAGAGGTCCCGGGTTCNNATCCCGGACGAGCCC
# What was measured:
# [1] = variants of: B1; assay: tRNA Pol-III promoter activity, log2 (circRNA frequency / plasmid DNA frequency) (log2 ratio); higher = stronger promoter activity; settings: HEK293T; construct: no Pol-II promoter ((-)CMV library)
# [2] = variants of: B1; assay: tRNA 3' processing efficiency (processed reads / all reads, maximum-likelihood estimate) (fraction); higher = more efficient 3' processing; settings: HEK293T; construct: no Pol-II promoter ((-)CMV library)
# [3] = variants of: B1; assay: tRNA 5' processing efficiency (processed reads / all reads, maximum-likelihood estimate) (fraction); higher = more efficient 5' processing; settings: HEK293T; construct: CMV Pol-II promoter ((+)CMV library, decapped)
Variant,tRNA Pol-III promoter activity (log2) [1],tRNA 3' processing efficiency [2],tRNA 5' processing efficiency [3]
GAA T53A A58T T59G,5.26,0.5,
TAA T8G T19G,4.7,0.32,
GAA T8G G18A,-0.0588,0.57,
AAA T19A T54A,5.16,0.29,
GAA T8G T54C C55T,5.26,0.2,
GAA T8G G15T A20G,2.19,0.6,
GAA T19G A20T T59G,3.36,0.25,
GAA T19G C62T,6.74,0.43,
AAA T19G T53A,4.03,0.25,
TAA T8C T54A,3.53,0.33,
AAA T19A C55T,1.83,0.33,
GAA T8G A14G G18A,5.36,0.5,
GAA T19A A20C C55A,3.73,0.22,
GAA T19A A20C C55T,3.86,0.05,
CAA T19G T59G,5.56,0.41,
GAA T19G A58G,4.48,0.82,
GAA T19G A58T,1.04,0.4,
GAA T8G T53G T54A C55A T59C,4.45,0.75,
GAA T19A A58T T59C,4.53,0.17,
CAA T53A T54C,6.51,0.5,
GAA T19G T54A,2.16,0.8,
CAA T19A T53G,2.86,0.25,

Variant,tRNA Pol-III promoter activity (log2) [1],tRNA 3' processing efficiency [2],tRNA 5' processing efficiency [3]
GAA T19C T59C,1.79,0.29,
GAA T19C T59A,1.64,0.34,0.25
GAA T19A T53A A58G,4.03,0.4,
CAA T19G A58G,3.03,0.25,
CAA T19G A58T,2.92,0.25,
CAA T19G A58C,5.58,0.5,
AAA T8G G15C G18A C55T A58T,5.49,0.18,
CAA T53C A58T,3.67,0.57,
GAA T8G T54A,0.712,0.5,0.5
TAA T19G T54A,3.03,0.25,
TAA T19A A58T,3.14,0.17,
GAA T53G T59A,0.771,0.25,
CAA T53A,3.53,0.44,0.33
CAA T53C,1.79,0.38,
CAA T53G,2.72,0.29,
CAA T54A,2.65,0.86,0.25
GAA T19C A58G T59C,4.58,0.36,
GAA T19C A58G T59G,8.11,0.22,
GAA T19C A58G T59A,4.97,0.38,
GAA T8G T53C,0.334,0.2,
GAA T8G T53A,-0.116,0.25,
GAA T8G T53G,1.14,0.11,

# Single values from the list.
# Value for CAA T19G A58G under tRNA 3' processing efficiency [2]: 0.25
# Value for GAA T19C A58G T59G under tRNA Pol-III promoter activity (log2) [1]: 8.11
# Value for AAA T8G G15C G18A C55T A58T under tRNA 3' processing efficiency [2]: 0.18
# Value for GAA T8G T53C under tRNA Pol-III promoter activity (log2) [1]: 0.334
# Value for GAA T19C A58G T59A under tRNA Pol-III promoter activity (log2) [1]: 4.97
# Value for GAA T19C T59C under tRNA Pol-III promoter activity (log2) [1]: 1.79

# (continued)

Variant,tRNA Pol-III promoter activity (log2) [1],tRNA 3' processing efficiency [2],tRNA 5' processing efficiency [3]
CAA T19A T59C,4.74,0.71,
GAA T53A A58G T59A,4.2,0.56,
GAA T53A A58G T59G,5.51,0.22,
GAA T53A A58G T59C,3.68,0.2,
TAA T54A,2.33,0.33,0.25
GAA T53C A58G T59A,4.51,0.4,
GAA T19G C55T A58T,2.03,0.25,
GAA T8G G9T T19A T59G,4.03,0.33,
CAA T19C,1.17,0.67,
CAA T19A,0.161,0.25,
CAA T19G,1.43,0.5,
GAA T8G G15A G18C,4.43,0.57,
GAA T8G A14C T59G,3.94,0.3,
AAA T53A,3.13,0.49,0.25
AAA T53G,0.588,0.38,
AAA T53C,0.891,0.37,
GAA T8G A14G G17A,4.36,0.67,
GAA T19C A20C,0.298,0.25,
GAA T53G,0.806,0.29,0.17
GAA T53A,2.7,0.39,0.22
GAA T53C,0.598,0.25,0.3
GAA T19G A20T A58C,4.2,0.25,

Variant,tRNA Pol-III promoter activity (log2) [1],tRNA 3' processing efficiency [2],tRNA 5' processing efficiency [3]
TAA T19G C55G,2.02,0.25,
GAA T19G T53G,0.453,0.45,
GAA T19G T53C,0.431,0.2,
GAA T19G T53A,1,0.25,0.33
GAA T8C T59A,0.0214,0.25,0.2
GAA T8C T59G,2.04,0.38,
GAA T8C T59C,3.21,0.44,
GAA T19A A58T,2.5,0.32,0.4
GAA T19A A58G,0.115,0.3,0.5
GAA T19A A58C,1.6,0.18,0.11
GAA T8G A14T T19C,6.26,0.2,
GAA T8G G36A,5.25,0.3,
GAA T19A T53A T59G,4.45,0.13,
GAA T19A T53A T59C,4.41,0.29,
GAA T8G A20G T54C,5.94,0.87,
GAA T19A A58G T59G,2.57,0.25,
GAA T19A A58G T59C,4.84,0.87,
GAA T19A A58G T59A,5.51,0.33,
GAA T8G A14C G15C,3.61,0.25,
GAA T8G A14T A20T,4.67,0.4,
AAA T54A,0.397,0.17,
GAA T19C A20G A58T,4.29,0.79,

Variant,tRNA Pol-III promoter activity (log2) [1],tRNA 3' processing efficiency [2],tRNA 5' processing efficiency [3]
GAA T8G A20T T59G,3.53,0.5,
AAA T53A T59C,6.62,0.17,
GAA T19A A20T T53A,4.23,0.38,
GAA T19A A20T T53G,5.03,0.5,
TAA T53G C55T,3.12,0.38,
GAA T19C T54C A58G,4.34,0.62,
TAA T19G A58T,2.76,0.25,
GAA T53G A58C,-0.345,0.5,0.29
GAA T53G A58G,0.908,0.28,
GAA T19A T54G,0.881,0.64,
GAA T19A T54A,2.69,0.72,
CAA T8C T53G A58T,7.39,0.55,
GAA T19A T54A T59C,4.93,0.5,
GAA T19A A20G A58C,3.29,0.56,
TAA T19G T53G,3.68,0.4,
TAA T19G T53A,6.03,0.37,
GAA T8G G15C A58G T59G,5.25,0.4,
GAA T19C A58T,0.313,0.42,
GAA T19C A58C,4.48,0.88,0.25
GAA T19C A58G,0.512,0.47,
GAA T19G C55T,-0.479,0.29,
GAA T19G C55G,-0.323,0.25,0.2
